# No constants are given. Whether binding was seen depends on the method and setting. In cells and extracts the contact can be indirect. Some entries that bind do so weakly or less than the wild type. Tags and fused reporters may be left off the sequences shown.
# Sequences of proteins named here, by UniProt entry; tags and fusion partners are left off. A change or cut given only in a name is not applied to a line headed by its entry.
# UniProt P31260: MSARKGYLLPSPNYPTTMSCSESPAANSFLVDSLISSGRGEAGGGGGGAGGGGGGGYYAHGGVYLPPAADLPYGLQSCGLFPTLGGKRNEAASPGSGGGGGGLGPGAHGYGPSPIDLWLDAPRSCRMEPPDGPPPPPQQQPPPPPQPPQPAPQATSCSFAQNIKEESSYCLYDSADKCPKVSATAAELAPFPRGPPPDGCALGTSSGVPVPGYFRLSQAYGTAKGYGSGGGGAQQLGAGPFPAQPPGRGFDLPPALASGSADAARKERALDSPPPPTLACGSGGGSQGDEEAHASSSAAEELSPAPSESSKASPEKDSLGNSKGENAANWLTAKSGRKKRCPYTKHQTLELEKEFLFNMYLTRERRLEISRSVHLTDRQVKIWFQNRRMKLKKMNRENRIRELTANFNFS
# Molecular target: T1, Flag-tagged CAPN7 (human) (UniProt Q9Y6W3)
# T1 sequence: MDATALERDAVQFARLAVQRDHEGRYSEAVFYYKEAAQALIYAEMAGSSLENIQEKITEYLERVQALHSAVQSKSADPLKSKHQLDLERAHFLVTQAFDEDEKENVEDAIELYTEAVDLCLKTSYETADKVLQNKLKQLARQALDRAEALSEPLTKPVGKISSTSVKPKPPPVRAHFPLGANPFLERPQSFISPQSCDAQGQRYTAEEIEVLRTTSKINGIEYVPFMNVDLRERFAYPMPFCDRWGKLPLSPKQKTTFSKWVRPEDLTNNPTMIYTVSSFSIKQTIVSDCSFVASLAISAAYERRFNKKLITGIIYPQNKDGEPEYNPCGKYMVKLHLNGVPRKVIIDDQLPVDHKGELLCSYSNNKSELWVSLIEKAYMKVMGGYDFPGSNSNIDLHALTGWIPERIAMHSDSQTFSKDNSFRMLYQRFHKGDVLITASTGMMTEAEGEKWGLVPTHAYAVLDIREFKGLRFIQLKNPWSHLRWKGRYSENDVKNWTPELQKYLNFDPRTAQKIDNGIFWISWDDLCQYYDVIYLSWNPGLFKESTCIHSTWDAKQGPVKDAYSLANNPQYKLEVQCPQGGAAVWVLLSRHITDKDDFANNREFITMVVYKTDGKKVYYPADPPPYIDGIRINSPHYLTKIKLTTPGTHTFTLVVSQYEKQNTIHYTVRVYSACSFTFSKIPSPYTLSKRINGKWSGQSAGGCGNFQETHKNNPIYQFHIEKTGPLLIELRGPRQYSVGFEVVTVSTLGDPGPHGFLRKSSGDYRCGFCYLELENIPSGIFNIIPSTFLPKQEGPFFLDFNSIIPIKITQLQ
# Assay: co-IP; HEK293T cells transiently co-transfected, lysed after 48 h in 50 mM Tris-HCl pH 7.6, 150 mM NaCl, 1.0% NP-40; precipitation with Myc-conjugated antibody or anti-Flag M2 beads at 4 °C overnight; immunoblot
row,binding,Substance
1,binds,Myc-HOXA10 (from UniProt P31260 1-410)
2,binds,Myc-HOXA10 C terminus (311–410 AA) (from UniProt P31260 311-410) (domain or fragment)

# — paper PMC5833723
